Results reported in PubChem BioAssay AID2685 (National Center for Advancing Translational Sciences (NCATS), 2010).
The list shows a part of the results. Further columns of the screen follow, without active or inactive calls. The list favours compounds with an active or inconclusive main result. Words in brackets tell the shape of the fitted curve; partial curves, single points and poor fits give uncertain potencies.

Assay: qHTS Assay for Lipid Storage Modulators in Drosophila S3 Cells;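 for cell number change: cells counted by Cell Tracker Red CMTPX staining in the red channel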
Settings: BODIPY lipid droplet fluorescence, 18-24 h; for cell number change: measured here: cell count max response, cells fed with added oleic acid
Summary of the method: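 Laser-scanning cytometry quantifies lipid droplet accumulation (500–530 nm total intensity; droplet/cell object ratio) in oleic acid-fed (400 uM added) Drosophila S3 cells treated with a concentration series. 20 uM Triacsin C defined 100% inhibition.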

[1] = measured here: cell number channel AC50, cells fed with added oleic acid
[2] = measured here: lipid fluorescence (Fed channel) AC50, cells fed with added oleic acid

Compound | cell number change | AC50 [1] | AC50 [2]
CCC1(C(=O)c2ccccc2)C(c2ccc([N+](=O)[O-])cc2)C1(C(=O)OC)C(=O)OC (centres undefined) | -7.3% | 4.11 µM [rising, single point] | –
Cc1ccccc1/C=N/NC(=O)CSc1nc2ccccc2o1 | 31.9% | 9.2 µM [rising, partial curve] | 11.6 µM [rising, partial curve]
Cn1c(=O)c(C(=O)NCCCc2ccccc2)c(O)c2ccccc21 | 3.44% | – | 29.1 µM [rising, single point]
CN(CC(=O)Nc1ccccc1Br)C(=O)c1cc(Cl)nc2ccccc12 | 7.15% | – | 2.06 µM [rising, full curve, poor fit]
COc1ccccc1C1C(C(=O)c2cc3ccccc3o2)=C(O)C(=O)N1c1cc(C)on1 (centres undefined) | – | – | 20.6 µM [rising, single point]
COc1ccccc1NC(=O)Cc1csc(NC(=S)Nc2ccccc2)n1 | -18.4% | – | 0.116 µM [falling, full curve, poor fit]
O=C(CN(c1ccc(F)cc1)S(=O)(=O)c1ccc2c(c1)OCCO2)NCc1ccncc1 | -25.4% | – | 18.4 µM [falling, partial curve, poor fit]
COc1ccccc1/C=C1\SC(=S)N(CCC(=O)Nc2ccc(C(=O)O)c(O)c2)C1=O | -34.8% | 0.206 µM [falling, full curve, poor fit] | –
Cc1cccc(OCCNC(=O)c2ccc(Cl)c(S(=O)(=O)NCc3cccnc3)c2)c1 | -16.2% | – | –
O=C(COC(=O)C1CCN(c2ccc(C(F)(F)F)cn2)CC1)NC1CCCCC1 | -19.5% | – | –
O=C(Nc1nc2c(F)cccc2s1)c1ccc([N+](=O)[O-])o1 | -16.7% | – | 1.46 µM [falling, full curve]
COc1cc(C(=O)OCC(=O)NC(=O)NCc2ccccc2)ccc1OC(F)F | -0.0808% | – | 3.66 µM [rising, partial curve]
O=C(CS(=O)CC(=O)N(CC(=O)NC1CCCC1)c1ccccc1F)Nc1ccc(F)cc1 (centres undefined) | 9.57% | – | 0.326 µM [rising, full curve]
CN(Cc1cnn(C)c1)C(=O)CC1C(=O)NCCN1Cc1cccc(Oc2ccccc2)c1 (centres undefined) | 22.7% | – | 20.6 µM [rising, single point]
COc1ccc(NC(=O)CC2SC(=N)N(c3ccccc3)C2=O)c(OC)c1 (centres undefined) | -7.95% | 2.31 µM [falling, partial curve] | 2.06 µM [falling, partial curve]
Cn1cc(S(=O)(=O)NC2CCCCC2)c(=O)n(C)c1=O | -14.2% | – | 20.6 µM [falling, partial curve]
CNC(=S)N(CCc1ccc(OC)c(OC)c1)C1CC(=O)N(c2ccccc2)C1=O (centres undefined) | 18.1% | – | –
COCCCN1C(=O)c2ccc(C(=O)OCC(=O)NCc3ccccc3OC)cc2C1=O | -29.8% | – | 11.6 µM [falling, partial curve, poor fit]
CCCC(CCC)C(=O)NCCN1CCOCC1 | 9.54% | 0.82 µM [falling, full curve] | 6.51 µM [falling, single point]

Exported as labelled records: part of the list above.
COc1ccc(NC(=O)CC2SC(=N)N(c3ccccc3)C2=O)c(OC)c1 (centres undefined)
  cell number change: -7.95%
  AC50 [1]: 2.31 µM [falling, partial curve]
  AC50 [2]: 2.06 µM [falling, partial curve]
Cn1cc(S(=O)(=O)NC2CCCCC2)c(=O)n(C)c1=O
  cell number change: -14.2%
  AC50 [2]: 20.6 µM [falling, partial curve]

Additional entries follow:

Compound | cell number change | AC50 [1] | AC50 [2]
COc1ccc(NC2=NCC(=O)N2c2ccccc2)c(OC)c1 | 3.77% | – | –
Cc1ccc(C(=O)N2CCN(CCNC(=O)C(=O)Nc3ccc(Cl)cc3)CC2)cc1 | -30.1% | 29.1 µM [falling, single point] | –
CCOc1ccc(NC(=O)C2CCCN(C(=O)Nc3ccccc3)C2)cc1 (centres undefined) | -2.87% | – | –
O=C(Nc1ccc([N+](=O)[O-])cc1)N1CCc2ccccc2C1 | 16.1% | – | 6.51 µM [rising, single point]
COc1ccc(N2C(=O)CSC23C(=O)N2c4c(cccc43)C(C)=CC2(C)C)cc1 (centres undefined) | -108% | – | –
CCn1nccc1C(=O)Nc1ccc(C)c(C)c1 | -11.4% | – | 5.8 µM [rising, full curve]
CCN(CC)c1ccc(/C=N/n2c(-c3ccccc3Br)n[nH]c2=S)cc1 | 20.6% | – | 8.2 µM [rising, partial curve]
COc1cccc(-c2csc(N3CCN(S(=O)(=O)c4ccc(F)cc4)CC3)n2)c1 | -16.7% | – | 0.00461 µM [falling, full curve, poor fit]
O=C(COC(=O)c1cn(-c2ccccc2)nc1-c1cccnc1)NC1CC1 | – | 1.84 µM [rising, partial curve, poor fit] | –
COc1ccc(NC(=O)CSc2nnc3ccc(-c4cccnc4)nn23)c(OC)c1 | 43.3% | 0.731 µM [rising, full curve] | –
CCn1c(SCC(=O)N/N=C/c2ccc(C)o2)nnc1-c1ccc(C(C)(C)C)cc1 | – | – | 2.06 µM [falling, partial curve, poor fit]
CCN(CC(=O)Nc1ccc2c(c1)OCCO2)C(=O)c1cccc(OCC(C)C)c1 | -4.82% | 4.11 µM [falling, single point] | –
O=C(CNCc1ccccc1)Nc1cccc(Cl)c1Cl | 19.7% | – | –
COc1ccc2[nH]c3c(c2c1)CCN1C(=O)N([C@@H](C)C(=O)NCCc2ccc(F)cc2)C(=O)[C@]31C | -12.3% | – | –
O=C(CCc1nc2ccccc2c(=O)[nH]1)NNC(=O)COc1cccc(F)c1 | -4.29% | – | –
Cc1c(C(=O)N2CCN(C(c3ccccc3)c3ccccc3)CC2)oc2ccccc12 | -27.6% | – | 0.00517 µM [falling, full curve, poor fit]
CS(=O)(=O)N(Cc1cc2ccccc2[nH]c1=O)C1CCCCC1 | -13.7% | 0.58 µM [rising, full curve] | 1.46 µM [rising, single point]
Cc1ccc(OCC(=O)NC(C)c2ccccc2)c([N+](=O)[O-])n1 (centres undefined) | 49.6% | 6.51 µM [rising, partial curve, poor fit] | 6.51 µM [rising, partial curve, poor fit]
CCOc1ccc(-n2c(SCc3nc(-c4ccc(C)cc4)no3)nnc2-c2ccncc2)cc1 | – | 6.51 µM [rising, partial curve, poor fit] | 6.51 µM [rising, single point]
